Source: the supplement of paper PMC5949888
Most values lie at the floor of the assay. Slopes are relative: functional sequences can read slightly below zero.

Each substance was assayed on Saccharomyces cerevisiae PS128 hsf1 delta, HSF1(1-493) fusion (assay: growth estimate (transactivation domain function in HSF1 fusion, heat-shock survival) (a.u. (slope of normalised read count over time)); higher = stronger growth at 37°C, i.e. more transactivation activity). Details: library: random library.

Substance | growth estimate
SSRRKFI | < -0.25
SSRRQE | < -0.25
SSRWRIRGS | < -0.25
SSRYRNLASHTLYMDVFSCT | < -0.25
SSSAISN | < -0.25
SSTDEYNSEHSGRGIAECVW | < -0.25
SSTPALRMDISEHSHVRRRP | < -0.25
SSTQKKRLKKFCVQVYGLPV | < -0.25
SSTS | < -0.25
SSVACADR | < -0.25
SSVHMGL | < -0.25
SSVRRTGGAAAVAARVESPR | < -0.25
SSVSAHECYRGARTLCLLSN | < -0.25
SSWKACANANAGGRSRTVQP | < -0.25
SSWLCGGLLYNT | < -0.25
SSY | < -0.25
STAEQDR | < -0.25
STAGPPSY | < -0.25
STAGTGARKHERAGPVYTLG | < -0.25
STCVDFAPSSDFLHCPGSFA | < -0.25
STEGWPLKTIDVRRKRTP | < -0.25
STEISPPGHSQLRGS | < -0.25
STFCWVFIVSVTELRAIRQL | < -0.25
STFQEQPVGPTMGCRVKFLH | < -0.25
STFQSSEAPGGCEAGVNMKG | < -0.25

Substance | growth estimate
STFYGH | < -0.25
STGASFY | < -0.25
STGGQPKRDDLT | < -0.25
STGLNEDSYPHSRLHCSLPT | < -0.25
STGQFFVGGTLTLASL | < -0.25
STGRGGALRSSQVMFRLGWT | < -0.25
STGSIGSSSVSVNLPVPKYS | < -0.25
STGSPGQASHTEGEQRGYRL | < -0.25
STGTDHVDQCWFIGGEPTCM | 1.75
STGVLVGVDQIHGNGVEL | < -0.25
STGYTIHIPGEPRTHLKCIG | < -0.25
STHEY | < -0.25
STKAGLFRRMCGRLPQK | < -0.25
STKFDRLNEGIATRNVHDHP | < -0.25
STLAVRRIDPSRLLLVSLSA | < -0.25
STLEALPMTADAGMPTLARD | < -0.25
STLHRPLLIRYSTIPELQLA | -0.248
STLKRSVGLLATG | < -0.25
STLTYSSPTDRHMLQGHKSA | < -0.25
STLWSLVPFRG | < -0.25
STMPSASQTGARILNVSADP | < -0.25
STNMLGRSPNCMRGKVCAPH | < -0.25
STNRLCSLLEYTFKVVRSVT | < -0.25
STPGLCLCIRD | -0.246
STPTEYTRSHLVHQQLGRRC | < -0.25

Copied from the list:
Entry of STGVLVGVDQIHGNGVEL under growth estimate: < -0.25
Entry of STFYGH under growth estimate: < -0.25
Entry of STLWSLVPFRG under growth estimate: < -0.25

Next results

Substance | growth estimate
STRAGTVPVGYTATVQSQGT | < -0.25
STRASVKT | < -0.25
STRGRGEKCVIRWNIRISTN | < -0.25
STRSSVS | < -0.25
STSNEFVVIGREYWFALVRP | -0.194
STSRSSTS | < -0.25
STSSPVVPYGSYRCRDAAWS | < -0.25
STSVEVRPDRSAQALIG | < -0.25
STTGAVAPGVMNDVILQQPI | < -0.25
STVIMKGRRKDIAGPMIVNT | < -0.25
STVKTGGSAIVLLYYPRGKR | < -0.25
STYISLTRRNGRCRRGRGAI | < -0.25
SVA | < -0.25
SVAAELCRCMPPVNLPILVR | < -0.25
SVALISSKG | < -0.25
SVAPTSPLTAPQ | < -0.25
SVAQLARADSRLSSREGFLR | < -0.25
SVARGSERCW | < -0.25
SVARVPIHLIPDRYKDDLAG | < -0.25
SVASGDQPARRIQVLRLALN | < -0.25
SVAVKPIT | < -0.25
SVAVLFFGSSVAWPLHISCR | < -0.25
SVCLLRLLVSTCDCLLGPLH | < -0.25
SVCP | < -0.25
SVCSGKVMTGESISKCLHVM | < -0.25

Substance | growth estimate
SVDSSWQGSEIFIVNPAKRS | < -0.25
SVDYTHFEVHHGLKVNRASR | < -0.25
SVFIREDKGLRERYEGRGST | < -0.25
SVFSG | < -0.25
SVGFEIRHSIVPDDHWKSHA | < -0.25
SVGGRKKSQKDTTESRMEQQ | < -0.25
SVGHFSSRYTGFSYWVGQ | < -0.25
SVGMPNITSVGGFDQGIGFP | < -0.25
SVGRSQSSTYTGRTSLAGEL | < -0.25
SVGRTRTLPPRVVASRDLSS | < -0.25
SVGVSSSDKSHVYRHFSSAL | < -0.25
SVHPHRCAKRCITRESHPCR | < -0.25
SVHSPAMEVDFPSFWTLQRT | < -0.25
SVHSSNLEHWLEIRT | < -0.25
SVIHVRVWLRKRSGTGAQKM | < -0.25
SVILSKSVCPRHRREYSGVL | < -0.25
SVIN | < -0.25
SVIWRIWTTGRGNQVVCPSS | < -0.25
SVKQMPKSICMY | < -0.25
SVKS | < -0.25
SVLAESAWGTTYGCHSSWSN | < -0.25
SVLATLEPGPGSQLHYIMIA | < -0.25
SVLNIRQRRNKSRTTPLWK | < -0.25
SVLSVRSVSRLTIFGEPYVH | < -0.25
SVLVRGTEVPTSARIVRQAA | < -0.25

Fetched one by one from the entries so far:
Substance | growth estimate
STSNEFVVIGREYWFALVRP | -0.194
SSWLCGGLLYNT | < -0.25
STNRLCSLLEYTFKVVRSVT | < -0.25
SVHPHRCAKRCITRESHPCR | < -0.25
STLTYSSPTDRHMLQGHKSA | < -0.25

Further records.

Substance | growth estimate
SVNSAGLGGFGRKGASQVAM | -0.243
SVNVIYWPRGRDFDVAPDPC | < -0.25
SVPCLASCGVWSFCRFCRAV | -0.248
SVPKSEGISGLDGGVFPNS | < -0.25
SVPRFEVHEISVIISQGEYE | < -0.25
SVPSKTLVKECSLAQEMIAF | < -0.25
SVQHSGLS | < -0.25
SVQSALREMRRLIHINPVND | 0.161
SVQSGAVRIQR | < -0.25
SVR | < -0.25
SVRFLISITLHIRLGPPCTP | < -0.25
SVRGSP | < -0.25
SVRGVYCA | < -0.25
SVRR | < -0.25
SVRRYAHDFL | < -0.25
SVRVRSTGLPTRLR | < -0.25
SVSFSRG | < -0.25
SVSGSRLSVTFGFRQRSVWL | < -0.25
SVSILDNLDPAR | < -0.25
SVSNRVPGLPPPYNYAPSKH | < -0.25
SVSREYRRAPSLICVWI | < -0.25
SVSTHSIPAACRLVLKVTKV | < -0.25
SVSTVRY | < -0.25
SVSY | < -0.25
SVSYEDRQSVRIQKVQRVRP | < -0.25

Substance | growth estimate
SVTPPLARPRQL | < -0.25
SVTRRRPRLRPAQLS | -0.241
SVVAGAVINDLCRSRPSFDP | < -0.25
SVVITTTVMSTWRFHYLI | < -0.25
SVVLAGLGFGRKPENSTGRR | < -0.25
SVYAKPNALISLSTSLRTRP | < -0.25
SVYEMFEGLIFRVVVESWML | < -0.25
SVYRVGGNFVA | < -0.25
SWAVRYRLH | < -0.25
SWD | < -0.25
SWDEGYRLEATGMNYWILHL | < -0.25
SWDVGVSP | < -0.25
SWEQTWCLLQSL | < -0.25
SWGFDVTTFWLTEARIAAPG | < -0.25
SWGG | < -0.25
SWGT | < -0.25
SWGYLAEISGYS | < -0.25
SWILK | < -0.25
SWILSTFYRKW | < -0.25
SWIRRSVSQF | < -0.25
SWKLVGTRAGRRMCL | < -0.25
SWKQINRYSMHAYCDHQARL | < -0.25
SWL | < -0.25
SWLLPSHLGDTVMSICLKIY | < -0.25
SWMG | < -0.25

Substance | growth estimate
SWNSVSL | < -0.25
SWNVHLGYPTAGN | 2.27
SWPLRQSRCSSYG | < -0.25
SWSDTRSYFRRCLRYRSIGR | < -0.25
SWSGRR | < -0.25
SWVQILTGVLRVWLLPDKKS | < -0.25
SWVRKGVINR | < -0.25
SWVYKKRAI | < -0.25
SWVYPEPLMWKKLLFAGTFN | < -0.25
SWWLIVRSE | -0.198
SWYGLHS | < -0.25
SWYICCPYHVWCALDRTLAG | < -0.25
SWYILKYSPMGRHSALAPMA | < -0.25
SWYPG | < -0.25
SWYVRTGASIIYTLDEVIFC | < -0.25
SYARRYGWDE | < -0.25
SYARSCGLRYGGRLSQLCTR | < -0.25
SYAWDIPQALRLTVKPCALT | < -0.25
SYEFLSRTTPRCSVSMLRFS | < -0.25
SYGQCPSP | < -0.25
SYGSDQRFEMFEARRHDVPG | < -0.25
SYGTPGEPSIITGTMIWVME | < -0.25
SYHSAANTLSKQEFSDGIIA | < -0.25
SYHYSTVYPV | < -0.25
SYIEIRVPNVKY | < -0.25

Substance | growth estimate
SYIRVALYL | < -0.25
SYIVSTGHKCASNSFTADEH | < -0.25
SYKAPHQHSPHSAL | < -0.25
SYKTVLPVVVMTARFEPRTR | < -0.25
SYLFRFTLPCKKYQYQLEQV | < -0.25
SYLQIFAGQHPTIIAM | < -0.25
SYLQRFTMSVGSTNAYPGGS | < -0.25
SYLRRVGVMCRTLK | < -0.25
SYP | < -0.25
SYRGFKRRSSYWYLS | < -0.25
SYRSMALGTKEGLMEQ | < -0.25
SYVHSKGTRRRS | < -0.25
SYVYLGIFCSGHRDSRVCGN | < -0.25
SYWLVAQDAVISGVMSSAVS | < -0.25
SYWQ | < -0.25
SYYKSSCLCSDQ | < -0.25
TACPTST | < -0.25
TACVHDPRKDKPEYPLSNLA | < -0.25
TAEGDRSDRSYGTGGHNLRG | < -0.25
TAEGKRTVRVIESWTQKSRD | < -0.25
TAGL | < -0.25
TAGLGLSDSEVVRLR | < -0.25
